Experimental data: PubChem BioAssay AID1671195 (Yale University, 2021)

- Test: 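Regulators of LDL receptor activity judged by labelled LDL uptake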 (primary screen)
- Cell system: human Huh7 hepatoma cells
- Reagents: siRNA pool against human genes, 18 nM
- Duration: about 2 to 2.5 days of knockdown, then 8 h LDL uptake
- Treatment: DiI-labelled LDL at 30 µg/ml for 8 h, in lipoprotein-deficient serum medium
- Measurement: 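Fluorescent LDL signal imaged in cells, scaled to the plate median, robust z-score for each replicate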
- Scale: robust z-score: higher = more LDL uptake after knockdown
- Hit rule: 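Active when two or more replicates show a robust z-score above 2 or below -2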
Shown is an unselected part of about 22,000 reagents. Of all reagents, about 1,510 (6.9%) were called active. 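Active includes knockdowns raising or lowering LDL uptake; positive z-scores mean more uptake, negative mean less.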 No sequences are given here.

Against NOP9 (NOP9 nucleolar protein), the values are robust z-score, replicate 1 = -0.786; robust z-score, replicate 2 = -0.745; robust z-score, replicate 3 = -0.0856; inactive.
For DHX35 (DEAH-box helicase 35), the values are robust z-score, replicate 1 = -1.45; robust z-score, replicate 2 = -2.19; robust z-score, replicate 3 = -2.43; active.
For TIMD4 (T cell immunoglobulin and mucin domain containing 4) the deposit lists robust z-score, replicate 1 = -0.646; robust z-score, replicate 2 = -0.403; robust z-score, replicate 3 = -0.375; inactive.
Against ZNF350 (zinc finger protein 350), the entry reads robust z-score, replicate 1 = 0.957; robust z-score, replicate 2 = 1.17; robust z-score, replicate 3 = 0.372; inactive.
With knock-down of RGCC (regulator of cell cycle), the screen gave robust z-score, replicate 1 = 0.899; robust z-score, replicate 2 = 0.942; robust z-score, replicate 3 = 1.87; inactive.
Knock-down of ZNF343 (zinc finger protein 343) gave: robust z-score, replicate 1 = -0.555; robust z-score, replicate 2 = -0.55; robust z-score, replicate 3 = -0.696; inactive.
Silencing of NOL7 (nucleolar protein 7) resulted in: robust z-score, replicate 1 = -0.52; robust z-score, replicate 2 = 0.34; robust z-score, replicate 3 = 0.461; inactive.
After knock-down of ERGIC2 (ERGIC and golgi 2), the record shows robust z-score, replicate 1 = -0.489; robust z-score, replicate 2 = 1.5; robust z-score, replicate 3 = 1.3; inactive.
For RAD9B (RAD9 checkpoint clamp component B) the deposit lists robust z-score, replicate 1 = 0.952; robust z-score, replicate 2 = -0.0665; robust z-score, replicate 3 = 1.15; inactive.
For LRRC40 (leucine rich repeat containing 40), the values are robust z-score, replicate 1 = 0.598; robust z-score, replicate 2 = 0.0144; robust z-score, replicate 3 = -1.24; inactive.
C3orf36 (chromosome 3 putative open reading frame 36) gave robust z-score, replicate 1 = 1.06; robust z-score, replicate 2 = 0.651; robust z-score, replicate 3 = 0.776; inactive.
CBX4 (chromobox 4) gave robust z-score, replicate 1 = 1.28; robust z-score, replicate 2 = 0.16; robust z-score, replicate 3 = 1.33; inactive.
For IL22 (interleukin 22) the deposit lists robust z-score, replicate 1 = 0.449; robust z-score, replicate 2 = -1.5; robust z-score, replicate 3 = 0.736; inactive.
After knock-down of LOC439985 (retired record) the results were robust z-score, replicate 1 = 4.69; robust z-score, replicate 2 = 4.1; robust z-score, replicate 3 = 3.61; active.
Depletion of SNHG29 (small nucleolar RNA host gene 29) came out at: robust z-score, replicate 1 = -1.27; robust z-score, replicate 2 = -1.33; robust z-score, replicate 3 = -1.22; inactive.
Against ZCCHC8 (zinc finger CCHC-type containing 8), the values are robust z-score, replicate 1 = -0.23; robust z-score, replicate 2 = 1.19; robust z-score, replicate 3 = -0.396; inactive.
With knock-down of ASAP2 (ArfGAP with SH3 domain, ankyrin repeat and PH domain 2) the results were robust z-score, replicate 1 = 0.115; robust z-score, replicate 2 = 1.54; robust z-score, replicate 3 = 1.58; inactive.
With knock-down of LMAN2 (lectin, mannose binding 2) the results were robust z-score, replicate 1 = -0.491; robust z-score, replicate 2 = -0.212; robust z-score, replicate 3 = -0.473; inactive.
Depletion of NQO1 (NAD(P)H quinone dehydrogenase 1) resulted in: robust z-score, replicate 1 = -0.126; robust z-score, replicate 2 = 0.158; robust z-score, replicate 3 = 0.249; inactive.
After knock-down of AHDC1 (AT-hook DNA binding motif containing 1), the screen gave robust z-score, replicate 1 = -0.46; robust z-score, replicate 2 = -2.22; robust z-score, replicate 3 = -0.0767; inactive.
Silencing of SV2C (synaptic vesicle glycoprotein 2C) came out at: robust z-score, replicate 1 = -1.02; robust z-score, replicate 2 = -0.855; robust z-score, replicate 3 = -0.965; inactive.
With knock-down of CYC1 (cytochrome c1), the screen gave robust z-score, replicate 1 = -0.446; robust z-score, replicate 2 = 0.147; robust z-score, replicate 3 = -0.883; inactive.
With knock-down of ANKRD24 (ankyrin repeat domain 24), the record shows robust z-score, replicate 1 = -1.04; robust z-score, replicate 2 = -0.919; robust z-score, replicate 3 = -1.08; inactive.
PHF12 (PHD finger protein 12) scored robust z-score, replicate 1 = -1.32; robust z-score, replicate 2 = -0.982; robust z-score, replicate 3 = -1.16; inactive.
